Measurements from PMC10569044, “Methylation and Demethylation of Emerging Contaminants Changed Bioaccumulation and Acute Toxicity in Daphnia magna” (Environmental Science & Technology, 2023).
Converted amounts (≈) assume the structure as drawn.

Assays:
[1] = in vivo; conditions: Daphnia magna
Description: Preliminary tests were conducted for each target compound at widely spaced concentrations to identify the concentration range for deriving an accurate dose–response curve. The stock solutions of individual test compounds were prepared in methanol and diluted with 10 mL of aerated AFW to different concentrations in 20 mL glass vials. The methanol volume was set to 100 μL in each vial as the solvent carrier, and a control group containing 100 μL of methanol without the target compound was used as the carrier solvent control. Each test included at least five concentration levels, and the concentrations of test compounds in the medium were experimentally measured (SI, Table S1). Each treatment included four replicates. […] The obtained dose–response data were fitted to the Boltzmann equation:[24] [drawing 1] 1 where C is the measured concentration of the test compound.

[2] = test system: D. magna

Row | SMILES | LC50 at 48 h [1] | ku (uptake rate constant) ([2]; D. magna, 24 h uptake phase) | concentration in D. magna ([2]; end of uptake phase, 24 h, 1 mg L^–1 nominal) | LC50 at 48 h ([1]; other: waterborne exposure in the test medium)
1 | CN1C(=O)CN=C(c2ccccc2)c2cc(Cl)ccc21 [diazepam, reference compound] | 3 ± 0.3 µg/mL (≈ 10.5 µM) | 68.3 ± 5 mL/min/kg | 7599.7 ± 1470.3 ng g^–1 (w.w.) | 
2 | COc1ccc2cc([C@H](C)C(=O)O)ccc2c1 [naproxen, reference compound] |  |  |  | 32.1 ± 4.9 µg/mL (≈ 139 µM)
